Values quoted from earlier work as cited in patent publication US20050227915A1, “Methods and reagents for treating neurodegenerative diseases and motor deficit disorders” (priority 2001, published 2005).
For at least one compound, name, drawing or mass did not settle the structure.

Test system: histone deacetylases (HDAC)
Conditions: cited from earlier work

CCCC(CCC)C(=O)O [valproate]
histone deacetylase activity: shown to have histone deacetylase activity
